# The other results are listed elsewhere or left out.
# Assays:
# Assay in all cases: glycan array binding signal (z-score within array); higher = stronger binding
# Conditions in all cases: glycan notation: IUPAC condensed, linker removed
# [1] = target: GlcNAc(a1-6)Gal(b1-4)GlcNAc
# Procedure, shortened: (§1)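 The binding signal is a Z-score computed within each array and averaged over linkers. Arrays of the same protein sequence at different concentrations or buffers were also averaged together. Data originate from 3228 arrays in the Consortium for Functional Glycomics database, kept only where the protein sequence was available.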
# [2] = target: GlcNAc(b1-2)Gal(b1-3)GalNAc
# Procedure, shortened: as §1
# [3] = target: GlcNAc(b1-2)Man(a1-3)[GlcNAc(b1-2)Man(a1-6)]Man(b1-4)GlcNAc(b1-4)GlcNAc
# Procedure, shortened: as §1
# [4] = target: GlcNAc(b1-2)Man(a1-3)[GlcNAc(b1-2)Man(a1-6)]Man(b1-4)GlcNAc(b1-4)[Fuc(a1-6)]GlcNAc
# Procedure, shortened: as §1
# [5] = target: GlcNAc(b1-2)Man(a1-3)[GlcNAc(b1-4)][GlcNAc(b1-2)Man(a1-6)]Man(b1-4)GlcNAc(b1-4)GlcNAc
# Procedure, shortened: as §1
# [6] = target: GlcNAc(b1-2)Man(a1-3)[GlcNAc(b1-4)][GlcNAc(b1-2)Man(a1-6)]Man(b1-4)GlcNAc(b1-4)[Fuc(a1-6)]GlcNAc
# Procedure, shortened: as §1
# [7] = target: GlcNAc(b1-2)[GlcNAc(b1-4)]Man(a1-3)[GlcNAc(b1-2)Man(a1-6)]Man(b1-4)GlcNAc(b1-4)GlcNAc
# Procedure, shortened: as §1
# [8] = target: GlcNAc(b1-2)[GlcNAc(b1-4)]Man(a1-3)[GlcNAc(b1-4)][GlcNAc(b1-2)Man(a1-6)]Man(b1-4)GlcNAc(b1-4)GlcNAc
# Procedure, shortened: as §1
# [9] = target: GlcNAc(b1-2)[GlcNAc(b1-4)]Man(a1-3)[GlcNAc(b1-4)][GlcNAc(b1-2)[GlcNAc(b1-6)]Man(a1-6)]Man(b1-4)GlcNAc(b1-4)GlcNAc
# Procedure, shortened: as §1
# [10] = target: GlcNAc(b1-2)[GlcNAc(b1-4)]Man(a1-3)[GlcNAc(b1-4)][GlcNAc(b1-2)[GlcNAc(b1-6)]Man(a1-6)]Man(b1-4)GlcNAc(b1-4)[Fuc(a1-6)]GlcNAc
# Procedure, shortened: as §1
# [11] = target: GlcNAc(b1-2)[GlcNAc(b1-6)]Man(a1-6)[GlcNAc(b1-2)Man(a1-3)]Man(b1-4)GlcNAc(b1-4)GlcNAc
# Procedure, shortened: as §1
# [12] = target: GlcNAc(b1-2)[GlcNAc(b1-6)]Man(a1-6)[GlcNAc(b1-2)Man(a1-3)]Man(b1-4)GlcNAc(b1-4)[Fuc(a1-6)]GlcNAc
# Procedure, shortened: as §1
# [13] = target: GlcNAc(b1-2)[GlcNAc(b1-6)]Man(a1-6)[GlcNAc(b1-4)][GlcNAc(b1-2)Man(a1-3)]Man(b1-4)GlcNAc(b1-4)GlcNAc
# Procedure, shortened: as §1
# GlcNAc(b1-3)Fuc = target: GlcNAc(b1-3)Fuc
# Procedure, shortened: as §1
# GlcNAc(b1-3)Gal = target: GlcNAc(b1-3)Gal
# Procedure, shortened: as §1
# [14] = target: GlcNAc(b1-3)Gal(b1-3)GalNAc
# Procedure, shortened: as §1
# GlcNAc(b1-3)Gal(b1-4)Glc = target: GlcNAc(b1-3)Gal(b1-4)Glc
# Procedure, shortened: as §1
# [15] = target: GlcNAc(b1-3)Gal(b1-4)GlcNAc
# Procedure, shortened: as §1
# [16] = target: GlcNAc(b1-3)Gal(b1-4)GlcNAc(b1-2)Man(a1-3)[GlcNAc(b1-3)Gal(b1-4)GlcNAc(b1-2)Man(a1-6)]Man(b1-4)GlcNAc(b1-4)GlcNAc
# Procedure, shortened: as §1
# [17] = target: GlcNAc(b1-3)Gal(b1-4)GlcNAc(b1-2)Man(a1-3)[GlcNAc(b1-3)Gal(b1-4)GlcNAc(b1-2)Man(a1-6)]Man(b1-4)GlcNAc(b1-4)[Fuc(a1-6)]GlcNAc
# Procedure, shortened: as §1
# [18] = target: GlcNAc(b1-3)Gal(b1-4)GlcNAc(b1-2)[GlcNAc(b1-3)Gal(b1-4)GlcNAc(b1-6)]Man(a1-6)[GlcNAc(b1-3)Gal(b1-4)GlcNAc(b1-2)Man(a1-3)]Man(b1-4)GlcNAc(b1-4)GlcNAc
# Procedure, shortened: as §1
# [19] = target: GlcNAc(b1-3)Gal(b1-4)GlcNAc(b1-3)Gal(b1-4)GlcNAc
# Procedure, shortened: as §1
# [20] = target: GlcNAc(b1-3)Gal(b1-4)GlcNAc(b1-3)Gal(b1-4)GlcNAc(b1-2)Man(a1-3)[GlcNAc(b1-3)Gal(b1-4)GlcNAc(b1-3)Gal(b1-4)GlcNAc(b1-2)Man(a1-6)]Man(b1-4)GlcNAc(b1-4)GlcNAc
# Procedure, shortened: as §1
# [21] = target: GlcNAc(b1-3)Gal(b1-4)GlcNAc(b1-3)Gal(b1-4)GlcNAc(b1-2)Man(a1-3)[GlcNAc(b1-3)Gal(b1-4)GlcNAc(b1-3)Gal(b1-4)GlcNAc(b1-2)Man(a1-6)]Man(b1-4)GlcNAc(b1-4)[Fuc(a1-6)]GlcNAc
# Procedure, shortened: as §1
# [22] = target: GlcNAc(b1-3)Gal(b1-4)GlcNAc(b1-3)Gal(b1-4)GlcNAc(b1-2)[GlcNAc(b1-3)Gal(b1-4)GlcNAc(b1-3)Gal(b1-4)GlcNAc(b1-6)]Man(a1-6)[GlcNAc(b1-3)Gal(b1-4)GlcNAc(b1-3)Gal(b1-4)GlcNAc(b1-2)Man(a1-3)]Man(b1-4)GlcNAc(b1-4)[Fuc(a1-6)]GlcNAc
# Procedure, shortened: as §1
# [23] = target: GlcNAc(b1-3)Gal(b1-4)GlcNAc(b1-3)Gal(b1-4)GlcNAc(b1-3)Gal(b1-4)GlcNAc(b1-2)Man(a1-3)[GlcNAc(b1-3)Gal(b1-4)GlcNAc(b1-3)Gal(b1-4)GlcNAc(b1-3)Gal(b1-4)GlcNAc(b1-2)Man(a1-6)]Man(b1-4)GlcNAc(b1-4)GlcNAc
# Procedure, shortened: as §1
# [24] = target: GlcNAc(b1-3)Gal(b1-4)GlcNAc(b1-3)Gal(b1-4)GlcNAc(b1-3)Gal(b1-4)GlcNAc(b1-2)Man(a1-3)[GlcNAc(b1-3)Gal(b1-4)GlcNAc(b1-3)Gal(b1-4)GlcNAc(b1-3)Gal(b1-4)GlcNAc(b1-2)Man(a1-6)]Man(b1-4)GlcNAc(b1-4)[Fuc(a1-6)]GlcNAc
# Procedure, shortened: as §1
# [25] = target: GlcNAc(b1-3)Gal(b1-4)GlcNAc(b1-3)Gal(b1-4)GlcNAc(b1-3)Gal(b1-4)GlcNAc(b1-2)[GlcNAc(b1-3)Gal(b1-4)GlcNAc(b1-3)Gal(b1-4)GlcNAc(b1-3)Gal(b1-4)GlcNAc(b1-6)]Man(a1-6)[GlcNAc(b1-3)Gal(b1-4)GlcNAc(b1-3)Gal(b1-4)GlcNAc(b1-3)Gal(b1-4)GlcNAc(b1-2)Man(a1-3)]Man(b1-4)GlcNAc(b1-4)[Fuc(a1-6)]GlcNAc
# Procedure, shortened: as §1
# [26] = target: GlcNAc(b1-3)Gal(b1-4)GlcNAc(b1-3)Gal(b1-4)GlcNAc(b1-3)Gal(b1-4)GlcNAc(b1-3)Gal(b1-4)GlcNAc(b1-2)Man(a1-3)[GlcNAc(b1-3)Gal(b1-4)GlcNAc(b1-3)Gal(b1-4)GlcNAc(b1-3)Gal(b1-4)GlcNAc(b1-3)Gal(b1-4)GlcNAc(b1-2)Man(a1-6)]Man(b1-4)GlcNAc(b1-4)GlcNAc
# Procedure, shortened: as §1
# [27] = target: GlcNAc(b1-3)Gal(b1-4)GlcNAc(b1-3)Gal(b1-4)GlcNAc(b1-3)Gal(b1-4)GlcNAc(b1-3)Gal(b1-4)GlcNAc(b1-2)Man(a1-3)[GlcNAc(b1-3)Gal(b1-4)GlcNAc(b1-3)Gal(b1-4)GlcNAc(b1-3)Gal(b1-4)GlcNAc(b1-3)Gal(b1-4)GlcNAc(b1-2)Man(a1-6)]Man(b1-4)GlcNAc(b1-4)[Fuc(a1-6)]GlcNAc
# Procedure, shortened: as §1
# [28] = target: GlcNAc(b1-3)Gal(b1-4)GlcNAc(b1-3)Gal(b1-4)GlcNAc(b1-3)Gal(b1-4)GlcNAc(b1-3)Gal(b1-4)GlcNAc(b1-2)[GlcNAc(b1-3)Gal(b1-4)GlcNAc(b1-3)Gal(b1-4)GlcNAc(b1-3)Gal(b1-4)GlcNAc(b1-3)Gal(b1-4)GlcNAc(b1-6)]Man(a1-6)[GlcNAc(b1-3)Gal(b1-4)GlcNAc(b1-3)Gal(b1-4)GlcNAc(b1-3)Gal(b1-4)GlcNAc(b1-3)Gal(b1-4)GlcNAc(b1-2)Man(a1-3)]Man(b1-4)GlcNAc(b1-4)[Fuc(a1-6)]GlcNAc
# Procedure, shortened: as §1
# [29] = target: GlcNAc(b1-3)Gal(b1-4)GlcNAc(b1-3)Gal(b1-4)GlcNAc(b1-3)GalNAc
# Procedure, shortened: as §1
# [30] = target: GlcNAc(b1-3)Gal(b1-4)GlcNAc(b1-3)GalNAc
# Procedure, shortened: as §1
# [31] = target: GlcNAc(b1-3)Gal(b1-4)GlcNAc(b1-3)[GlcNAc(b1-3)Gal(b1-4)GlcNAc(b1-3)]GalNAc
# Procedure, shortened: as §1
# [32] = target: GlcNAc(b1-3)Gal(b1-4)GlcNAc(b1-6)[Gal(b1-3)]GalNAc
# Procedure, shortened: as §1
# [33] = target: GlcNAc(b1-3)Gal(b1-4)GlcNAc(b1-6)[GlcNAc(b1-3)Gal(b1-3)]GalNAc
# Procedure, shortened: as §1
# [34] = target: GlcNAc(b1-3)Gal(b1-4)GlcNAc(b1-6)[GlcNAc(b1-3)]Gal(b1-4)GlcNAc
# Procedure, shortened: as §1
binder,measurement,setting,value
"AT3G44510(29) (Arabidopsis thaliana), F4J341 (protein) MEEHLQGRIKLHDGRYLAYKERGVPKDDAKFTIVLVHGFGSSKDMNFNVSQELVNEIGIYFVLYDRAGYGESDPNPKRSLKSEAYDVQELADGLEIGSRFYLIGISMGSYTVWSCLKHIPQRLAGVAMVAPVVNFRWPSIPKSLMPKDYRREVAKWSVWIANYFPGLLQWLVTQNMFSTTSMLEKNPVYFNDQDIEVLKHIKGFPMLTKEKLRERGVFGTLRSDFLVAFGDWDFDPADLPDPSLSGPEKGSSSVHIWQGYEDKVMPFQLQRCLCRKLPWIRYHEVPKGGHLIVHYDGICDAILKSLLLGEDLPMYKPKAVITEPA",glycan array binding signal (z-score),[1],-0.5
same,glycan array binding signal (z-score),[2],0.602
same,glycan array binding signal (z-score),[3],0.113
same,glycan array binding signal (z-score),[4],-0.697
same,glycan array binding signal (z-score),[5],-0.339
same,glycan array binding signal (z-score),[6],0.091
same,glycan array binding signal (z-score),[7],0.019
same,glycan array binding signal (z-score),[8],-0.629
same,glycan array binding signal (z-score),[9],-0.411
same,glycan array binding signal (z-score),[10],0.062
same,glycan array binding signal (z-score),[11],-0.575
same,glycan array binding signal (z-score),[12],-0.201
same,glycan array binding signal (z-score),[13],-0.394
same,glycan array binding signal (z-score),GlcNAc(b1-3)Fuc,0.104
same,glycan array binding signal (z-score),GlcNAc(b1-3)Gal,-0.695
same,glycan array binding signal (z-score),[14],0.009
same,glycan array binding signal (z-score),GlcNAc(b1-3)Gal(b1-4)Glc,-0.345
same,glycan array binding signal (z-score),[15],0.6
same,glycan array binding signal (z-score),[16],0.047
same,glycan array binding signal (z-score),[17],0.315
same,glycan array binding signal (z-score),[18],2.5
same,glycan array binding signal (z-score),[19],0.013
same,glycan array binding signal (z-score),[20],0.562
same,glycan array binding signal (z-score),[21],0.558
same,glycan array binding signal (z-score),[22],0.292
same,glycan array binding signal (z-score),[23],0.308
same,glycan array binding signal (z-score),[24],-0.699
same,glycan array binding signal (z-score),[25],1.12
same,glycan array binding signal (z-score),[26],0.873
same,glycan array binding signal (z-score),[27],-0.686
same,glycan array binding signal (z-score),[28],-0.135
same,glycan array binding signal (z-score),[29],-0.482
same,glycan array binding signal (z-score),[30],1.05
same,glycan array binding signal (z-score),[31],-0.319
same,glycan array binding signal (z-score),[32],-0.882
same,glycan array binding signal (z-score),[33],-0.752
same,glycan array binding signal (z-score),[34],0.419

# 2 entries from above, with bars between the fields:
binder | measurement | setting | value
AT3G44510(29) (Arabidopsis thaliana), F4J341 (protein) MEEHLQGRIKLHDGRYLAYKERGVPKDDAKFTIVLVHGFGSSKDMNFNVSQELVNEIGIYFVLYDRAGYGESDPNPKRSLKSEAYDVQELADGLEIGSRFYLIGISMGSYTVWSCLKHIPQRLAGVAMVAPVVNFRWPSIPKSLMPKDYRREVAKWSVWIANYFPGLLQWLVTQNMFSTTSMLEKNPVYFNDQDIEVLKHIKGFPMLTKEKLRERGVFGTLRSDFLVAFGDWDFDPADLPDPSLSGPEKGSSSVHIWQGYEDKVMPFQLQRCLCRKLPWIRYHEVPKGGHLIVHYDGICDAILKSLLLGEDLPMYKPKAVITEPA | glycan array binding signal (z-score) | GlcNAc(b1-3)Gal | -0.695
same | glycan array binding signal (z-score) | [14] | 0.009

# Source: the supplement of paper PMC8728848
